From the supplement of paper PMC9433722 come the findings set out here.

Assay [1] concerns Saos-2. As to the kind of experiment: cell viability (CCK-8) relative to DMSO control (% of control); higher = less cytotoxic. As to conditions: 10 µM; 48 h.
For assay [2], the system named is U2OS. Described as above. As to conditions: 10 µM; 48 h.

Each structure is given as a SMILES string. Structures can show the parent of a compound that is named as a salt. This is one part of the list. Repeats are few or missing, and single values can be far off.

As to `CCOc1nc2cccc(C(=O)O)c2n1Cc1ccc(-c2ccccc2-c2nnn[nH]2)cc1` [Candesartan], the cell viability was 59.5 in assay [1] and 115 in assay [2].
Take `COc1cc(C(=O)NCc2ccc(OCCN(C)C)cc2)cc(OC)c1OC` [Trimethobenzamide·HCl]: the cell viability in assay [1] worked out at 77.2; in assay [2], 77.3.
For `CNCCCC1c2ccccc2C=Cc2ccccc21` [Protriptyline·HCl] the same measures were 102 and 98.4.
Taken in the same sequence, the figures for `Nc1ncn([C@@H]2O[C@H](CO)[C@@H](O)[C@H]2O)c(=O)n1` [5-Azacytidine] were 124 and 101.
Taken in the same sequence, the figures for `C[N+](C)(C)CCOC(N)=O` [Carbamoylcholine chloride] were 63.4 and 106.
On to `C[C@H](CCC(=O)O)[C@H]1CC[C@H]2[C@@H]3[C@@H](O)C[C@@H]4C[C@H](O)CC[C@]4(C)[C@H]3CC[C@]12C` [Ursodiol], for which the cell viability amounted to 139 in assay [1] and 79.3 in assay [2].
`CCCCCCCCCC(=O)N[C@@H](Cc1c[nH]c2ccccc12)C(=O)N[C@H](CC(N)=O)C(=O)N[C@@H](CC(=O)O)C(=O)N[C@@H]1C(=O)NCC(=O)N[C@@H](CCCN)C(=O)N[C@@H](CC(=O)O)C(=O)N[C@H](C)C(=O)N[C@@H](CC(=O)O)C(=O)NCC(=O)N[C@H](CO)C(=O)N[C@@H]([C@H](C)CC(=O)O)C(=O)N[C@@H](CC(=O)c2ccccc2N)C(=O)O[C@@H]1C` [Daptomycin]: the cell viability is 116 in assay [1] and 86.5 in assay [2].
As to `COc1c(C)c2c(c(O)c1C/C=C(\C)CCC(=O)O)C(=O)OC2` [Mycophenolic Acid], the cell viability in assay [1] is 44.9; in assay [2] it was 62.4.
Consider `O=c1[nH]cc(F)c(=O)[nH]1` [5-Fluorouracil], for which the values for the cell viability in assay [1] and in assay [2] were 56.2 and 77.6, respectively.
Taken in the same sequence, the figures for `CS(=O)(=O)CCNCc1ccc(-c2ccc3ncnc(Nc4ccc(OCc5cccc(F)c5)c(Cl)c4)c3c2)o1` [Lapatinib Ditosylate] were 60.8 and 82.9.
Taken in the same sequence, the figures for `CCCCNc1cc(C(=O)O)cc(S(N)(=O)=O)c1Oc1ccccc1` [Bumetanide] were 59.5 and 103.
Taken in the same sequence, the figures for `CC(=O)OCC(=O)[C@@]1(O)CC[C@H]2[C@@H]3CCC4=CC(=O)CC[C@]4(C)[C@@]3(F)[C@@H](O)C[C@@]21C` [Fludrocortisone Acetate] were 115 and 89.4.
In the case of `CC(C)c1nc(N(C)S(C)(=O)=O)nc(-c2ccc(F)cc2)c1/C=C/[C@@H](O)C[C@@H](O)CC(=O)O` [Rosuvastatin Calcium], the values for the cell viability in assay [1] and in assay [2] were 84.9 and 102, respectively.
Taken in the same sequence, the figures for `CCC[C@@H]1C[C@@H](C(=O)N[C@@H]([C@H]2O[C@H](SC)[C@H](O)[C@@H](O)[C@H]2O)[C@H](C)Cl)N(C)C1` [Clindamycin · HCl] were 64.7 and 88.3.
Taken in the same sequence, the figures for `NC[C@H]1O[C@H](O[C@H]2[C@H](O)[C@@H](O[C@H]3O[C@H](CO)[C@@H](O)[C@H](N)[C@H]3O)[C@H](N)C[C@@H]2N)[C@H](O)[C@@H](O)[C@@H]1O` [Kanamycin . sulfate] were 115 and 103.
For `Cc1ccc(-c2cc(C(F)(F)F)nn2-c2ccc(S(N)(=O)=O)cc2)cc1` [Celecoxib] the same measures were 64.4 and 103.
As to `CN(C)CCOC(=O)C(c1ccccc1)C1(O)CCCC1` (centres undefined) [Cyclopentolate], the cell viability in assay [1] was found to be 110; in assay [2] it was 91.6.
`CN(C)[C@@H]1C(O)=C(C(N)=O)C(=O)[C@@]2(O)C(O)=C3C(=O)c4c(O)cccc4[C@@](C)(O)[C@H]3C[C@@H]12` [Tetracycline]: the cell viability in assay [1] was found to be 63.3; in assay [2], 106.
For `NC(=O)c1cnccn1` [Pyrazinamide] the same measures were 105 and 97.
For `OCCOCCN1CCN(C2=Nc3ccccc3Sc3ccccc32)CC1` [Quetiapine Fumarate] the same measures were 57.6 and 96.4.
Taken in the same sequence, the figures for `OC(CCN1CCCCC1)(c1ccccc1)C1CC2C=CC1C2` (centres undefined) [Biperiden·HCl] were 116 and 110.
As to `CCOC(=O)C1=C(C)NC(C)=C(C(=O)OC)C1c1cccc(Cl)c1Cl` (centres undefined) [Felodipine], the cell viability in assay [1] was 65.9; in assay [2], 108.
For the molecule `CCCc1nc2c(C)cc(-c3nc4ccccc4n3C)cc2n1Cc1ccc(-c2ccccc2C(=O)O)cc1` [Telmisartan], the cell viability in assay [1] is 53.9; in assay [2], 88.9.
Turning to `O=C(CCCCCCC(=O)Nc1ccccc1)NO` [Vorinostat (SAHA)], the cell viability in assay [1] was found to be 23.8; in assay [2], 17.9.
For `CC(C)(C)C(=O)OCOP(=O)(COCCn1cnc2c(N)ncnc21)OCOC(=O)C(C)(C)C` [Adefovir Dipivoxil] the same measures were 89.6 and 77.5.
Take `OC[C@@H](O)[C@@H](O)[C@H](O)[C@H](O)CO` [Mannitol]: the cell viability is 108 in assay [1] and 92.3 in assay [2].
For `CO[C@H]1/C=C/O[C@@]2(C)Oc3c(C)c(O)c4c(O)c(c(/C=N/N5CCN(C)CC5)c(O)c4c3C2=O)NC(=O)/C(C)=C\C=C\[C@H](C)[C@H](O)[C@@H](C)[C@@H](O)[C@@H](C)[C@H](OC(C)=O)[C@@H]1C` [Rifampicin] the same measures were 55.5 and 109.
